Results as given in patent publication US20130287807A1, “COMPOUNDS FOR TREATING SYMPTOMS ASSOCIATED WITH PARKINSON'S DISEASE” (priority 2008, published 2013).
Some entries share one result that the patent states for a list of compounds.

System: monoclonal antibody (DAEFRH-peptide-specific)
Experiment: Inhibition assay (ELISA): mimotope peptides compete with plate-bound original epitope DAEFRH for recognition by the monoclonal antibody
Format: binding, Mice
Settings: competition ELISA, plate-bound DAEFRH-C-BSA, biotinylated mAb 1:2000
Excerpt: Mice are vaccinated with the 6mer peptide DAEFRH (natural N-terminal Aβ42 sequence) linked to the protein bovine serum albumin BSA (to make use of the hapten-carrier-effect), emulsified in CFA (first injection) and IFA (booster injections). DAEFRH-peptide-specific, antibody-producing hybridomas are detected by ELISA (DAEFRH-peptide-coated ELISA plates).
FIGS. 2 and 3 describe the results of inhibition assays performed with mimotope peptides included in and obtained from the 5 libraries (as described in WO 2004/062556). The mimotope peptides compete with the original epitope for recognition by the monoclonal antibody. Original epitope and mimotope peptides contain an additional C at the C-terminus for coupling to a protein carrier (if desired).
After blocking with PBS/BSA 1% (200 μl/well, 12 h, 4° C.), the plates are washed 3× times with PBS/Tween. Then, biotinylated monoclonal antibody (1:2000, 50 μl/well) and peptides (50 μl/well) at 50, 5, 0.5, 0.05, 0.005, and 0.0005 μg/ml are added for 20 min. at 37° C. The plates are washed 3× times with PBS/Tween and are incubated with horseradish peroxidase (HRP)-labeled streptavidin (100 μl/well, 30 min, RT). The plates are washed 5× times with PBS/Tween and are incubated with ABTS+H2O2(0.1% w/v, 10 to 45 min) and the reaction is stopped with citric acid followed by photometric evaluation (wavelength 405 nm). […]

SMILES: C[C@H](NC(=O)[C@H](CC(=O)O)NC(=O)[C@H](CCCNC(=N)N)NC(=O)[C@H](Cc1ccccc1)NC(=O)[C@H](CCC(=O)O)NC(=O)[C@H](Cc1c[nH]c2ccccc12)NC(=O)[C@@H](N)CC(=O)O)C(=O)N[C@@H](CS)C(=O)O [Peptide 1241, DWEFRDA]
- IC50 (inhibition of monoclonal antibody recognition of DAEFRH): less than 0.5 μg/ml
